The supplement of paper PMC10849652
Some of the results follow.

Sequences of proteins named here, by UniProt entry; tags and fusion partners are left off. A change or cut given only in a name is not applied to a line headed by its entry.
UniProt P29144: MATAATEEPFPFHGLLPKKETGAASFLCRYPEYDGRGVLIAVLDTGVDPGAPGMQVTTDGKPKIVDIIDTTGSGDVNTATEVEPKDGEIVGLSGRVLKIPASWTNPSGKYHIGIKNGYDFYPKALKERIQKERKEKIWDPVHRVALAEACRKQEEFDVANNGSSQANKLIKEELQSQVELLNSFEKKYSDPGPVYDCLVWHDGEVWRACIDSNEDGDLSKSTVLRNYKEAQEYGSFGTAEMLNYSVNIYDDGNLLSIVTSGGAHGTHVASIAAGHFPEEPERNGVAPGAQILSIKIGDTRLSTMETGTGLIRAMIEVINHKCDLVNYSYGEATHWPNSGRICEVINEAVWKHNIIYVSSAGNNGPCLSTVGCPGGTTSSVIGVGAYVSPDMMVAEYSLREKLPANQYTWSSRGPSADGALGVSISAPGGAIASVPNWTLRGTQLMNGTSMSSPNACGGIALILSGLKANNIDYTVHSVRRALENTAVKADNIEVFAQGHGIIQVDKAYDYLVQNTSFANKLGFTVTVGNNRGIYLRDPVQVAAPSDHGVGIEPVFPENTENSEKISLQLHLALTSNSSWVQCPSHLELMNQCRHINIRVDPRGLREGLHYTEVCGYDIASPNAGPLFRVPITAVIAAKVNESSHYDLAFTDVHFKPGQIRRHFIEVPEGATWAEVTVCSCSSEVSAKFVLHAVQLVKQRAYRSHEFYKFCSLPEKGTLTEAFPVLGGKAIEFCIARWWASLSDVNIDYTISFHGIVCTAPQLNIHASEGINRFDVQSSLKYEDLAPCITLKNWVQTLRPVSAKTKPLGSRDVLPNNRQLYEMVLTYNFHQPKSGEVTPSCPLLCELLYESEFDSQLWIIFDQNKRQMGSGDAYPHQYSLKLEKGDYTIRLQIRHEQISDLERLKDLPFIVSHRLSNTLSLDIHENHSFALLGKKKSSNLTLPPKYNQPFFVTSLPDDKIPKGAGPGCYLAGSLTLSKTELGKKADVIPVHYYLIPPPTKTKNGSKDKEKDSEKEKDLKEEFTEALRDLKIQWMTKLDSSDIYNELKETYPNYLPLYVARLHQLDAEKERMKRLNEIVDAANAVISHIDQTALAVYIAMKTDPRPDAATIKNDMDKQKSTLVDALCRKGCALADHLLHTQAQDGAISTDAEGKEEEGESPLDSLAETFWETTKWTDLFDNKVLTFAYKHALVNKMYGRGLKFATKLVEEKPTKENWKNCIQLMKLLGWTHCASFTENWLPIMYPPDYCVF
UniProt Q53FA7: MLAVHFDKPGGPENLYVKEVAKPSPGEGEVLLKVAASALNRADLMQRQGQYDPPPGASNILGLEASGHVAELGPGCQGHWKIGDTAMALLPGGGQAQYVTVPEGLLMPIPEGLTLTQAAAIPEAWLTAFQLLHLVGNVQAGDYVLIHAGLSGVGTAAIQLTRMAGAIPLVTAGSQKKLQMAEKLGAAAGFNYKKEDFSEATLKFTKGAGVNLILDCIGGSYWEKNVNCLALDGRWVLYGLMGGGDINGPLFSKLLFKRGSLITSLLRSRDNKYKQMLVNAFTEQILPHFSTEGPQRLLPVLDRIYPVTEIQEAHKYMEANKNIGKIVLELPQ
UniProt Q13049: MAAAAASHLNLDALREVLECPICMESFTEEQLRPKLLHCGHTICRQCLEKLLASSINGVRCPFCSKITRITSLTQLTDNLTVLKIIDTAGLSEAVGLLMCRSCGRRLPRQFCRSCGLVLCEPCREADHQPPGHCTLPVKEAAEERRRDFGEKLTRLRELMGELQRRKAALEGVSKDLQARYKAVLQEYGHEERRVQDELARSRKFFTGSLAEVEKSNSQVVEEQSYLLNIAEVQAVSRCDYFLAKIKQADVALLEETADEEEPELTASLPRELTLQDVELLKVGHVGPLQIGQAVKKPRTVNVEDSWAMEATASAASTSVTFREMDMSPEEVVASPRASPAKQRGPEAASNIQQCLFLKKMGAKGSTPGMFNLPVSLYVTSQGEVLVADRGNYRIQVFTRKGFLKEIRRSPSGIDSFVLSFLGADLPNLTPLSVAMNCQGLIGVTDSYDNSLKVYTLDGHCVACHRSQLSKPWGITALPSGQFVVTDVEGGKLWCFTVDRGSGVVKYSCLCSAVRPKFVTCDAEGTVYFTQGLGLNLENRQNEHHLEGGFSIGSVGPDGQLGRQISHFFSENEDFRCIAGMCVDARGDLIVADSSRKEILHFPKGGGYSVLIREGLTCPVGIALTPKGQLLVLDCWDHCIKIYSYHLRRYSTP
UniProt O96008: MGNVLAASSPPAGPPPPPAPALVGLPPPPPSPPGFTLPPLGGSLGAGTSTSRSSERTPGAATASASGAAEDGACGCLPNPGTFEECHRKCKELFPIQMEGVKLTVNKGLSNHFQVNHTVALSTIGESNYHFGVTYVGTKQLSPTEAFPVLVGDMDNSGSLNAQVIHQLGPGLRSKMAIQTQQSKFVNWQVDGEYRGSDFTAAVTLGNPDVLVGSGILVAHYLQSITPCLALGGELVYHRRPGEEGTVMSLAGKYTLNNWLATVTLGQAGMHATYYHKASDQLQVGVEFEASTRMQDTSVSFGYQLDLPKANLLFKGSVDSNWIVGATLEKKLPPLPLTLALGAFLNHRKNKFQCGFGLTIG
UniProt P20333, whole entry, looked up: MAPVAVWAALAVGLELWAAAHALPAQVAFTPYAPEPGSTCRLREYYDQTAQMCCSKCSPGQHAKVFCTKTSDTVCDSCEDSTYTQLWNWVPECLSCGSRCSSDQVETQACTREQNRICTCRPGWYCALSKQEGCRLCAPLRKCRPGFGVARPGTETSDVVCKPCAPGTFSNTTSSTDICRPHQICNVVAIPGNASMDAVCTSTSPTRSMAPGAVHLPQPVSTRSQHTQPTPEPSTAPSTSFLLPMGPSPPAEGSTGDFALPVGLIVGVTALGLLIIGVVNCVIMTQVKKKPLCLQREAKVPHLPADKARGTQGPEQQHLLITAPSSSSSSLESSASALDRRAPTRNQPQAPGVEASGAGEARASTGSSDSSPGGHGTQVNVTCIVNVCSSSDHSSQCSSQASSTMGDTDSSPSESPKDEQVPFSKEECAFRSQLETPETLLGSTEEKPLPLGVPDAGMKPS
UniProt Q12931: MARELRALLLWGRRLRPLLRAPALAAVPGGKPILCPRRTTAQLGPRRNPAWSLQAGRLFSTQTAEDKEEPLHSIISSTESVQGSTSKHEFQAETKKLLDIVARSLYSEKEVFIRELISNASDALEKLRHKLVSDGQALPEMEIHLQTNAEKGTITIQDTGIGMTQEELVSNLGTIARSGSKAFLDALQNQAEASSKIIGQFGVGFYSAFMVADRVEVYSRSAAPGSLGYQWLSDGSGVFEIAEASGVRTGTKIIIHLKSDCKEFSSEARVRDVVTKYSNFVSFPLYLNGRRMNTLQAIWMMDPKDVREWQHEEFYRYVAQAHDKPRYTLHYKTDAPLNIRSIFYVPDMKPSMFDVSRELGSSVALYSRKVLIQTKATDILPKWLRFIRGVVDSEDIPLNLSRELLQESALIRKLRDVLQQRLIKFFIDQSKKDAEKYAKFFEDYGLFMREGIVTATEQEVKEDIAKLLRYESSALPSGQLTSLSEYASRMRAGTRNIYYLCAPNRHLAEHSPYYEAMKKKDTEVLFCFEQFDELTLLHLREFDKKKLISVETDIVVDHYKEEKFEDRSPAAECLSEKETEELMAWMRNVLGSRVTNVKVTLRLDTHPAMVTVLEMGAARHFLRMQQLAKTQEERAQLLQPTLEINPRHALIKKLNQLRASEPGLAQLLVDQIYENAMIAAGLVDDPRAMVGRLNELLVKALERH
UniProt Q9Y3Q8: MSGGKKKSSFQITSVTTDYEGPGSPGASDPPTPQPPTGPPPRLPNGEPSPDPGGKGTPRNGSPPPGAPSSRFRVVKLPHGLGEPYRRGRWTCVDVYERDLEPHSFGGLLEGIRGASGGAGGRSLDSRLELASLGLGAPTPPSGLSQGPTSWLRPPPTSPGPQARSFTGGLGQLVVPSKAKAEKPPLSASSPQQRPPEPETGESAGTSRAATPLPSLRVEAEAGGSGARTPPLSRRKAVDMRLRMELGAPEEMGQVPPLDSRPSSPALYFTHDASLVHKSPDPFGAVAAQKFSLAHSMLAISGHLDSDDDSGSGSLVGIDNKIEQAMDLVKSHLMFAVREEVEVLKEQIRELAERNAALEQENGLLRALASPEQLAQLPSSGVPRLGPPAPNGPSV
UniProt O43399: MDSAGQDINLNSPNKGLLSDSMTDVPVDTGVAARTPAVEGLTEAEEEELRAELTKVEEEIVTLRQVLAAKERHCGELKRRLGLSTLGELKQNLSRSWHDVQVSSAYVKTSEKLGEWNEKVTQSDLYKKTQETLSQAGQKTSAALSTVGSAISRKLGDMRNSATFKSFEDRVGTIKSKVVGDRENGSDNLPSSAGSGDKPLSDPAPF
UniProt Q16890: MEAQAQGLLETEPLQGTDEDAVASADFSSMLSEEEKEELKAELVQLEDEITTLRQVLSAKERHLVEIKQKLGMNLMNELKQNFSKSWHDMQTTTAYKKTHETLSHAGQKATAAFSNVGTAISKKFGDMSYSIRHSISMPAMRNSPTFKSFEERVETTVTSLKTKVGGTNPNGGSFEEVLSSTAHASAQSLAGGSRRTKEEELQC
UniProt Q15629: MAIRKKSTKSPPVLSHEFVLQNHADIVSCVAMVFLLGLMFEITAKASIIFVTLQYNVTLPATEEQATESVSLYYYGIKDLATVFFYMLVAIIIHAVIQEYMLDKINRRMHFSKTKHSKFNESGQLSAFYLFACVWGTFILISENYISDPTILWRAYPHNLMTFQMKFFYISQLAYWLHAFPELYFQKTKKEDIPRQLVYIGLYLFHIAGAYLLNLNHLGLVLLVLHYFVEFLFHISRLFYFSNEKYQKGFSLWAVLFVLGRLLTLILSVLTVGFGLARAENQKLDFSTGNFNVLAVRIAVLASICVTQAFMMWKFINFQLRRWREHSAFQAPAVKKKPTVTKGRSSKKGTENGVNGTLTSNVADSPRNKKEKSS
UniProt Q9NS69: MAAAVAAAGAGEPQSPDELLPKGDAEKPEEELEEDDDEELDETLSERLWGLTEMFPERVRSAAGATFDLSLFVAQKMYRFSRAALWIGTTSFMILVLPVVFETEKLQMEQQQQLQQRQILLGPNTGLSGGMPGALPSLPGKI
UniProt O60704: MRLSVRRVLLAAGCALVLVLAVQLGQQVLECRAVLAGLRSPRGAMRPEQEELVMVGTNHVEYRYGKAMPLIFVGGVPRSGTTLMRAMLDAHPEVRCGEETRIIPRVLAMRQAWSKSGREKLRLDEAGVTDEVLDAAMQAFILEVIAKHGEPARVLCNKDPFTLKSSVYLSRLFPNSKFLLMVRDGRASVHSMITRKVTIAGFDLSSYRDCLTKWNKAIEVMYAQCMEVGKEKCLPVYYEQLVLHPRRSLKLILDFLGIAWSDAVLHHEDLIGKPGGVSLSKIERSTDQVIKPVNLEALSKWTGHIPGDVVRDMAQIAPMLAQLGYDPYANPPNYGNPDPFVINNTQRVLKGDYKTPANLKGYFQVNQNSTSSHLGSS
UniProt Q96F44: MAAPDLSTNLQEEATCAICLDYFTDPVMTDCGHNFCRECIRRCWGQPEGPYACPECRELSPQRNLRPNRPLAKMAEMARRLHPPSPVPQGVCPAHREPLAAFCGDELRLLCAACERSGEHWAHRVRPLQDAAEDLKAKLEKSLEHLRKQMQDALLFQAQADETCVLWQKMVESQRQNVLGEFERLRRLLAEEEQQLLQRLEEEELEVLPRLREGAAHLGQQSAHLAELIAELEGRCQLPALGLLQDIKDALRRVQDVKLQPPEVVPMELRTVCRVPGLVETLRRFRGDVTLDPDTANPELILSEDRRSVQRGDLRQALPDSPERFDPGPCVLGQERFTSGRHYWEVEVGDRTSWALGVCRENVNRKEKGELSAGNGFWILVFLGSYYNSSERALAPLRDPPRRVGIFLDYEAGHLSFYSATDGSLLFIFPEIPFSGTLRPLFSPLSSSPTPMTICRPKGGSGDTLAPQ
UniProt O94826, whole entry, looked up: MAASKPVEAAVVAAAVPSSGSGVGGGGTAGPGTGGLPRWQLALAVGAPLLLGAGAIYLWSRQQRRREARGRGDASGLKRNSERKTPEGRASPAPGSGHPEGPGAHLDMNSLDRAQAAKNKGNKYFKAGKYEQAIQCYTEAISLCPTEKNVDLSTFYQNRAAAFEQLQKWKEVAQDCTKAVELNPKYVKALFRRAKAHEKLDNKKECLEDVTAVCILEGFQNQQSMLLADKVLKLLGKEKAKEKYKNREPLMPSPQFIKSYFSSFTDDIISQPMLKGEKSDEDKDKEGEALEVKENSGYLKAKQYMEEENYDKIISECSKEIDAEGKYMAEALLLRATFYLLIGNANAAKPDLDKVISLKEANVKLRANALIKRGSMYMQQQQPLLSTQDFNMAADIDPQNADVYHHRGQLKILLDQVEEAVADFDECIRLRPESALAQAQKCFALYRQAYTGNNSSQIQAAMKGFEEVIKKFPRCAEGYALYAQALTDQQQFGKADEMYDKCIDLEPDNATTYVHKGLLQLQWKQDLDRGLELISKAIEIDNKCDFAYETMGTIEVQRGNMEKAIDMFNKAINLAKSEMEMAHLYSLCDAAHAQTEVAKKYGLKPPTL

Experiments:
Assay in all cases: log2 fold change, soluble protein after heating vs DMSO (PISA); higher = thermal stabilisation; K562 cells, 10 uM, 30 min; active = over 0.2 and 3.5 SD of the protein, either way, in both replicates (recomputed)
[1] = compound: NC(=O)Nc1cc(-c2cccc(F)c2)sc1C(=O)N[C@H]1CCCNC1
In short: (§1)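 Soluble protein was quantified by TMTpro 16plex LC-MS/MS after channel sums were equalised. It was obtained as the supernatant after 21,000xg for 90 min from pooled aliquots of K562 cells (2×10^6 cells/mL, 10 μM compound, 30 min) heated for 3 min across 48°C-58°C and extracted in PBS with 0.5% NP-40 at 4°C. Thermal stability values are relative to control samples and come from duplicates. They are given as log2 fold changes.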

[2] = compound: NC(=O)c1cnc(N[C@@H]2CCCC[C@@H]2N)nc1Nc1cccc(-n2nccn2)c1
In short: as §1

[3] = compound: NC1(c2ccc(-c3nc4ccn5c(=O)[nH]nc5c4cc3-c3ccccc3)cc2)CCC1
In short: as §1

[4] = compound: NCC(=O)Nc1ccc(-n2nc(C(F)(F)F)cc2-c2ccc3c(ccc4ccccc43)c2)cc1
In short: as §1

entinostat = compound: Nc1ccccc1NC(=O)c1ccc(CNC(=O)OCc2cccnc2)cc1 [entinostat]
In short: as §1

vorinostat = compound: O=C(CCCCCCC(=O)Nc1ccccc1)NO [vorinostat]
In short: as §1

citarinostat = compound: O=C(CCCCCCNC(=O)c1cnc(N(c2ccccc2)c2ccccc2Cl)nc1)NO [citarinostat]
In short: as §1

silmitasertib = compound: O=C(O)c1ccc2c(c1)nc(Nc1cccc(Cl)c1)c1ccncc12 [silmitasertib]
In short: as §1

[5] = compound: O=C1NC(=O)C(c2cnc3ccccn23)=C1c1cn2c3c(cc(F)cc13)CN(C(=O)N1CCCCC1)CC2
In short: as §1

[6] = compound: c1cc(OCCN2CCCCC2)cc(-c2n[nH]c3ccc(-c4nnc[nH]4)cc23)c1
In short: as §1

Measured: log2 fold change

TPP2 (UniProt P29144)
inactive: [1] 0.032 | [2] 0.061 | [3] -0.079 | [4] 0.157 | entinostat -0.026 | vorinostat -0.008 | citarinostat -0.049 | silmitasertib -0.027 | [5] 0.098 | [6] -0.192

TP53I3 (UniProt Q53FA7)
inactive: [1] -0.005 | [2] -0.015 | [3] 0.004 | [4] -0.063 | entinostat -0.02 | vorinostat -0.02 | citarinostat 0.015 | silmitasertib 0.014 | [5] -0.017 | [6] 0.015

TRMT10A (UniProt Q8TBZ6)
inactive: [1] 0.015 | [2] -0.005 | [3] -0.075 | [4] -0.109 | entinostat -0.039 | vorinostat -0.003 | citarinostat -0.013 | silmitasertib -0.023 | [5] 0.007 | [6] -0.02

TRAPPC3 (UniProt O43617)
inactive: [1] 0.017 | [2] -0.056 | [3] -0.145 | [4] -0.058 | entinostat 0.022 | vorinostat 0.004 | citarinostat 0.038 | silmitasertib 0.032 | [5] 0 | [6] -0.048

TRIM32 (UniProt Q13049)
inactive: [1] -0.011 | [2] -0.066 | [3] -0.035 | [4] -0.075 | entinostat -0.018 | vorinostat -0.043 | citarinostat -0.058 | silmitasertib 0.15 | [5] -0.023 | [6] 0.141

TRAPPC2L (UniProt Q9UL33)
inactive: [1] 0.005 | [2] -0.025 | [3] -0.126 | [4] 0.054 | entinostat 0.008 | vorinostat 0.068 | citarinostat 0.031 | silmitasertib 0.037 | [5] -0.047 | [6] -0.099

TRAPPC11 (UniProt Q7Z392)
inactive: [1] -0.033 | [2] -0.11 | [3] -0.187 | [4] 0.007 | entinostat 0.011 | vorinostat 0.012 | citarinostat -0.006 | silmitasertib 0.044 | [5] -0.036 | [6] -0.053

TRIAP1 (UniProt O43715)
inactive: [1] -0.039 | [2] 0.062 | [3] 0.045 | [4] -0.005 | entinostat 0.041 | vorinostat -0.177 | citarinostat -0.024 | silmitasertib -0.025 | [5] -0.034 | [6] -0.038

TOMM40 (UniProt O96008)
inactive: [1] 0.062 | [2] 0.003 | [3] -0.03 | [4] 0.02 | entinostat 0.019 | vorinostat -0.013 | citarinostat 0.057 | silmitasertib 0.012 | [5] 0.023 | [6] -0.009

TNFRSF1B (UniProt P20333)
inactive: [1] -0.134 | [2] -0.011 | [3] -0.026 | [4] 0.05 | entinostat -0.06 | vorinostat -0.018 | citarinostat 0.094 | silmitasertib -0.036 | [5] 0.006 | [6] -0.123

TRAP1 (UniProt Q12931)
inactive: [1] 0.011 | [2] -0.001 | [3] -0.024 | [4] 0.047 | entinostat 0.01 | vorinostat -0.01 | citarinostat 0.016 | silmitasertib 0.008 | [5] -0.027 | [6] 0.013

TPM1 (UniProt H7BYY1)
inactive: [1] -0.009 | [2] -0.115 | [3] -0.004 | [4] 0.033 | entinostat -0.015 | vorinostat -0.112 | citarinostat -0.047 | silmitasertib 0.005 | [5] -0.051 | [6] -0.017

TSC22D4 (UniProt Q9Y3Q8)
inactive: [1] 0.056 | [2] -0.021 | [3] -0.015 | [4] 0.011 | entinostat 0.011 | vorinostat 0.031 | citarinostat 0.047 | silmitasertib 0.013 | [5] -0.067 | [6] -0.007

TRAPPC8 (UniProt Q9Y2L5)
inactive: [1] -0.039 | [2] -0.082 | [3] -0.168 | [4] -0.028 | entinostat 0.042 | vorinostat 0.053 | citarinostat 0.051 | silmitasertib 0.07 | [5] -0.016 | [6] -0.205

TOLLIP (UniProt Q9H0E2)
inactive: [1] 0.037 | [2] -0.043 | [3] -0.012 | [4] 0 | entinostat 0.054 | vorinostat 0.013 | citarinostat 0.044 | silmitasertib -0.069 | [5] -0.083 | [6] 0.303

TPM3 isoform 4 (UniProt P06753)
inactive: [1] 0.017 | [2] -0.013 | [3] -0.025 | [4] 0.124 | entinostat -0.023 | vorinostat -0.154 | citarinostat 0.017 | silmitasertib 0.041 | [5] -0.032 | [6] -0.022

TPD52L2 isoform 7 (UniProt O43399)
inactive: [1] -0.007 | [2] -0.028 | [3] 0.014 | [4] -0.015 | entinostat 0.015 | vorinostat -0.019 | citarinostat 0.034 | silmitasertib -0.03 | [5] -0.068 | [6] -0.01

TOMM40L (UniProt Q969M1)
inactive: [1] 0.048 | [2] 0.071 | [3] -0.029 | [4] 0.023 | entinostat -0.017 | vorinostat -0.036 | citarinostat 0.003 | silmitasertib 0.016 | [5] 0.02 | [6] -0.034

TPD52L1 (UniProt Q16890)
inactive: [1] -0.017 | [2] -0.043 | [3] 0.016 | [4] 0.059 | entinostat -0.005 | vorinostat -0.027 | citarinostat 0.073 | silmitasertib -0.031 | [5] -0.001 | [6] -0.05

TRAM1 (UniProt Q15629)
inactive: [1] -0.104 | [2] -0.073 | [3] -0.162 | [4] -0.196 | entinostat -0.075 | vorinostat 0.034 | citarinostat -0.083 | silmitasertib 0.066 | [5] 0.025 | [6] -0.021

TNPO3 (UniProt Q9Y5L0)
inactive: [1] 0.026 | [2] -0.018 | [4] -0.024 | entinostat 0.049 | vorinostat 0.076 | citarinostat 0.058 | silmitasertib -0.024 | [5] -0.06 | [6] -0.059
active: [3] -0.221

TOMM22 (UniProt Q9NS69)
inactive: [1] 0.116 | [2] -0.012 | [3] 0.006 | [4] 0.047 | entinostat 0.009 | vorinostat -0.184 | citarinostat 0.028 | silmitasertib 0.027 | [5] -0.055 | [6] -0.065

TPST2 (UniProt O60704)
inactive: [1] 0.024 | [2] -0.009 | [3] 0.218 | [4] -0.011 | entinostat -0.023 | vorinostat -0.048 | citarinostat 0.084 | silmitasertib 0.002 | [5] -0.013 | [6] -0.024

TPM2 (UniProt P07951)
inactive: [1] 0.119 | [2] 0.081 | [3] 0.157 | [4] 0.201 | entinostat 0.077 | vorinostat -0.077 | citarinostat 0.103 | silmitasertib -0.07 | [5] 0.162 | [6] 0.171

TRABD (UniProt Q9H4I3)
inactive: [1] 0.008 | [2] -0.006 | [3] 0.1 | [4] 0.157 | entinostat -0.022 | vorinostat 0.009 | citarinostat -0.014 | silmitasertib 0.188 | [5] 0.055 | [6] -0.026

TRIM11 (UniProt Q96F44)
inactive: [1] -0.001 | [2] -0.02 | [3] -0.129 | [4] 0.007 | entinostat 0.023 | vorinostat -0.041 | citarinostat 0.033 | silmitasertib -0.028 | [5] -0.027 | [6] -0.043

TOMM70 (UniProt O94826)
inactive: [1] -0.018 | [2] -0.056 | [3] -0.092 | [4] -0.033 | entinostat 0.042 | vorinostat 0 | citarinostat 0.043 | silmitasertib -0.003 | [5] -0.017 | [6] -0.023

TOR2A (UniProt Q5JU69)
inactive: [1] -0.064 | [2] 0.021 | [3] -0.046 | [4] -0.005 | entinostat -0.055 | vorinostat 0.033 | citarinostat -0.112 | silmitasertib -0.011 | [5] -0.008 | [6] -0.146

TRIM28 (UniProt Q13263)
inactive: [1] -0.006 | [2] -0.008 | [3] -0.038 | [4] -0.007 | entinostat 0.038 | vorinostat 0.032 | citarinostat 0.036 | silmitasertib 0.036 | [5] -0.048 | [6] -0.009
